Like-named read-outs stand apart in the source and are kept apart here.
Experiments:
chymotrypsin [1] = assay: chymotrypsin inhibition
chymotrypsin [2] = assay: chymotrypsin inhibition; remark: listed apart in the source

Binder	IC50 (chymotrypsin [1])	IC50 (chymotrypsin [2])
A (other, Asn(Oligosaccharide) at residue 28 (asparagine-linked sugar chain of formula (1)); disulfide bonds formed on folding, positions not determined for this fraction) LAAVSVDCSEYPKPACTMEYRPLCGSDNKTYGNKCNFCNAVVESNGTLTLSHFGKC	5.9 nM	
B (other, Asn(Oligosaccharide) at residue 28 (asparagine-linked sugar chain of formula (1)); three disulfide bonds at the same positions as naturally-occurring OMSVP3) LAAVSVDCSEYPKPACTMEYRPLCGSDNKTYGNKCNFCNAVVESNGTLTLSHFGKC	9.1 nM	
C (other, Asn(Oligosaccharide) at residue 28 (asparagine-linked sugar chain of formula (1)); disulfide bonds formed on folding, positions not determined for this fraction) LAAVSVDCSEYPKPACTMEYRPLCGSDNKTYGNKCNFCNAVVESNGTLTLSHFGKC	10.9 nM	

Second part, the binder after the results:

IC50 (chymotrypsin [1])	IC50 (chymotrypsin [2])	Binder
17.6 nM		D (other, Asn(Oligosaccharide) at residue 28 (asparagine-linked sugar chain of formula (1)); disulfide bonds formed on folding, positions not determined for this fraction) LAAVSVDCSEYPKPACTMEYRPLCGSDNKTYGNKCNFCNAVVESNGTLTLSHFGKC
	7.2 nM	F (other, three disulfide bonds at the same positions as naturally-occurring OMSVP3) LAAVSVDCSEYPKPACTMEYRPLCGSDNKTYGNKCNFCNAVVESNGTLTLSHFGKC
